The series has as its system brine shrimp larvae (Artemia salina L.). The series can be described thus: Artemia saline lethality test. The format is in vivo. The following applies: 24 h, 100-1000 ppm in triplicate. How it is done:
. The surviving shrimp were counted after 24 h and the percentage of deaths was determined by the computation of half lethal concentration 50 (LC50) (Fig. 1).

Data on one compound can be found in publication PMC5156471, “Complementary pharmacological and toxicological characterization data on the pharmacological profile of N-(2,6-dichlorophenyl)-2-(4-methyl-1-piperidinyl) acetamide” (Data in Brief, 2016).

A word on the LC50: it is the concentration that kills 50% of the test population. A lower LC50 goes with a more lethal substance.

Molecules are shown by their SMILES.

`CCN(CC)CC(=O)Nc1c(C)cccc1C` [Lidocaine, reference compound]: the median lethal concentration (LC50) was 265.2 ± 24.4 ppm.
